Test results from publication PMC5681675.
These are yes or no findings as the source states them, for the method shown. In cells and extracts the contact can be indirect. Some entries that bind do so weakly or less than the wild type. Sequences can lack the tags named with a protein.

Sequences of proteins named here, by UniProt entry; tags and fusion partners are left off. Residues count along the entry.
UniProt O95831, residues 102-613: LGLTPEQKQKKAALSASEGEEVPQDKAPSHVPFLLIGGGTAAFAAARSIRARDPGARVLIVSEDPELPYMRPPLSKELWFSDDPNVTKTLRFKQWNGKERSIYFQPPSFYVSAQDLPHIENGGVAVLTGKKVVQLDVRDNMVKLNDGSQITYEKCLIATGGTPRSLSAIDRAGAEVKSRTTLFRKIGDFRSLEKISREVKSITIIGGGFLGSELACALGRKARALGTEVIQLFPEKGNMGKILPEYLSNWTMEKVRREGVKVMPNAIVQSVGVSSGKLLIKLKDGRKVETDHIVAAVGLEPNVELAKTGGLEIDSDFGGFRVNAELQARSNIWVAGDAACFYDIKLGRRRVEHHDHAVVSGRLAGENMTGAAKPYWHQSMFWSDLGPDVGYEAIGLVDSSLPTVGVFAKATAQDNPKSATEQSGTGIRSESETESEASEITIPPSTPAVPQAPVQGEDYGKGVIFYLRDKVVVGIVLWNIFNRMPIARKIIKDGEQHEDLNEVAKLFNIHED

Molecular target: T1, FLAG-NPRL2-GFP (human) (UniProt Q8WTW4)
T1 sequence: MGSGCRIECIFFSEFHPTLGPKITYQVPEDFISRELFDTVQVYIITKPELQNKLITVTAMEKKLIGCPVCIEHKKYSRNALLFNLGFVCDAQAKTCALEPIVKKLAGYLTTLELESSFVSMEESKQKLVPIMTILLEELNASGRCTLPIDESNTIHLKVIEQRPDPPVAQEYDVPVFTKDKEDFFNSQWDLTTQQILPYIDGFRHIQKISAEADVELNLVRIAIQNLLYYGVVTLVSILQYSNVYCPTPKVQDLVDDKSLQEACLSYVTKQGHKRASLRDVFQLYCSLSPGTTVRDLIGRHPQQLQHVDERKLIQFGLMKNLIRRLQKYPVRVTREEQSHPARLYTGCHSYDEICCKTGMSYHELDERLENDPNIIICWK
Test: co-IP; immunoprecipitates from HEK293 cells stably expressing GFP or FLAG-NPRL2-GFP, analysed by immunoblotting

apoptosis-inducing factor (AIF) (from UniProt O95831 102-613)
binding: binds
